PubChem BioAssay AID493014 (National Center for Advancing Translational Sciences (NCATS), 2011)
Some of the results follow. These are further read-outs of the screen, such as a control signal, another cell line or another target. No call is given for them. The list favours compounds with an active or inconclusive main result. The note in brackets gives the kind of curve behind each potency; many fits are weak.

Assay: qHTS Assay to Find Inhibitors of Chronic Active B-Cell Receptor Signaling
Settings: ABC-DLBCL IkBa-CBG/CBR reporter, luminescence ratio (green luciferase fused to IkBa over red control in TMD8 lymphoma cells), 4 h
Summary of the method: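 TMD8 ABC-DLBCL cells carrying doxycycline-inducible green luciferase fused to IkappaBalpha plus unfused red luciferase were exposed to compounds (up to 46 uM) for 4 hrs at 37C. Activity came from the overlap-corrected green/red luminescence ratio.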

[1] = measured here: CBR red luminescence, cell number

In the case of `CCSc1nnc(NC(=O)c2cccnc2Cl)s1`, the AC50 [1] is reported as 29.1 µM [falling, single point].

For `Cn1nc(C(F)(F)F)c(C(=O)Nc2ccc(F)cc2F)c1Cl`, the AC50 [1] was 11.2 µM [rising, partial curve].

In the case of `Fc1ccc(/C=N/n2c(C3CCCCC3)n[nH]c2=S)cc1`, the AC50 [1] is reported as 17.8 µM [rising, single point].

For `CCOc1ccc(NC(=O)CSc2ncc(-c3ccc(F)cc3)n2Cc2ccco2)cc1`, the AC50 [1] was 35.5 µM [falling, single point].

In the case of `Cc1ccc(C)c(N2CCN(C(=O)C3CCCCN3S(=O)(=O)c3ccc(F)cc3)CC2)c1` (configuration not stated), the AC50 [1] is reported as 0.731 µM [rising, full curve, poor fit].

With `COc1ccc(CNc2ncccn2)cc1OC` the AC50 [1] was 35.5 µM [rising, partial curve, poor fit].

With `COc1ccc(Cl)cc1NC(=O)c1cc(-c2ccccc2O)n[nH]1` the AC50 [1] was 1.64 µM [falling, partial curve, poor fit].

For `O=C(CSc1ncnc2ccccc12)Nc1ccc2c(c1)OCCO2`, the AC50 [1] was 11.2 µM [falling, partial curve, poor fit].

In the case of `COc1ccccc1/C=C/CN1CCC(n2nccc2NC(=O)CCc2ccccc2)CC1`, the AC50 [1] is reported as 10 µM [falling, partial curve, poor fit].

For `Cc1ccc(C)c(N2CCN(S(=O)(=O)c3ccc4c(c3)CCC(=O)N4)CC2)c1`, the AC50 [1] was 20 µM [falling, single point].

With `CN(CC(=O)Nc1ncn[nH]1)S(=O)(=O)c1cc(Cl)ccc1Cl` the AC50 [1] was 3.55 µM [rising, single point].

With `COc1cc(CNc2nc3ccccc3n2C)cc(OC)c1OC` the AC50 [1] was 10.3 µM [rising, partial curve, poor fit].

With `CC(=O)Nc1ccc(S(=O)(=O)NNC(=O)COc2ccc(Cl)cc2Cl)cc1` the AC50 [1] was 0.0891 µM [rising, full curve, poor fit].

In the case of `CCOc1ccc(/C=C2\SC(=S)N(CCC(=O)N(CCO)c3ccccc3)C2=O)cc1`, the AC50 [1] is reported as 7.94 µM [falling, partial curve].

In the case of `CN1CCN(c2ccccc2NC(=S)NC(=O)c2cc3ccccc3o2)CC1`, the AC50 [1] is reported as 11.2 µM [rising, single point].

For `C=CCn1c(CCNC(=O)c2ccccc2F)nnc1SCC(=O)Nc1nc2ccccc2s1`, the AC50 [1] was 3.26 µM [falling, single point].

In the case of `Cc1ccc(-c2nc(CS(=O)(=O)CC(=O)NCCCN(Cc3ccccc3)C(C)C)c(C)o2)cc1`, the AC50 [1] is reported as 20 µM [falling, single point].

In the case of `O=C(CCSCCc1ccccn1)Nc1cc(F)ccc1F`, the AC50 [1] is reported as 35.5 µM [falling, single point].

With `O=C(NNC(=O)c1cccc(Br)c1)C(=O)N1CCCCC1` the AC50 [1] was 29.1 µM [rising, single point].

With `O=C(O)Cn1c(-c2cscn2)nc2ccccc21` the AC50 [1] was 35.5 µM [rising, single point].

For `CC(C)(C)OC(=O)NCCCCCNC(=O)c1nc[nH]c1C(=O)NCCCCCNC(=O)OC(C)(C)C`, the AC50 [1] was 20.6 µM [falling, single point].

In the case of `CC(C)c1ccc(CNCCCSc2ncccn2)cc1`, the AC50 [1] is reported as 25.1 µM [falling, single point].

With `Cc1nn(-c2ccccc2)c(=S)c2ccccc12` the AC50 [1] was 5.17 µM [rising, full curve, poor fit] and the AC50 (measured here: IkBa-CBG green luminescence) was 16.4 µM [falling, single point].

In the case of `O=C(O)CCC(=O)Nc1ccc(-c2csc(Nc3cccc4ccccc34)n2)cc1`, the AC50 [1] is reported as 5.17 µM [falling, partial curve].

In the case of `O=C(CCCc1ccccc1)NCc1ccccc1`, the AC50 [1] is reported as 31.6 µM [falling, single point].

For `COc1ccc(C(=O)n2nc(C)cc2C)cc1Br`, the AC50 [1] was 7.31 µM [falling, partial curve, poor fit].

In the case of `COc1ccc(N(CC(O)Cn2nnc3ccccc32)S(=O)(=O)c2ccc(C)cc2)cc1` (configuration not stated), the AC50 [1] is reported as 3.55 µM [rising, single point].

In the case of `Cc1noc(C)c1COc1ccccc1C(=O)NNC(=O)c1ccccc1`, the AC50 [1] is reported as 3.66 µM [rising, partial curve, poor fit].

In the case of `Cc1ccc(NC(=O)c2cc(-c3ccccc3O)n[nH]2)cc1C`, the AC50 [1] is reported as 12.6 µM [falling, partial curve, poor fit].

For `O=C(CSc1nc2ccccc2s1)N1CCN(C(=O)c2ccco2)CC1`, the AC50 [1] was 29.1 µM [falling, single point].

In the case of `NC(=O)c1oc2ccccc2c1NC(=O)c1ccc([N+](=O)[O-])o1`, the AC50 [1] is reported as 0.126 µM [falling, full curve, poor fit].

With `CN(C)CCn1c(C(=O)Nc2ccccc2)cc2ccccc21` the AC50 [1] was 3.98 µM [falling, partial curve, poor fit].

In the case of `CCOC(=O)c1ccc(NC(=S)N2CCN(Cc3ccccc3)CC2)cc1`, the AC50 [1] is reported as 16.4 µM [rising, partial curve, poor fit].

In the case of `CCN1CCCC1CNC(=O)c1[nH]c2ccc(OC)cc2c1C` (configuration not stated), the AC50 [1] is reported as 25.1 µM [falling, single point].

In the case of `O=C(COC(=O)c1ccc([N+](=O)[O-])s1)c1ccc[nH]1`, the AC50 [1] is reported as 18.4 µM [rising, partial curve, poor fit].

In the case of `CC(=O)NC(=S)Nc1ccc(NC(=S)NC(=O)c2ccc([N+](=O)[O-])cc2)cc1`, the AC50 [1] is reported as 1 µM [rising, partial curve].

With `CCOc1cccc(C(=O)NC2CCCCC2)c1` the AC50 [1] was 9.2 µM [falling, full curve, poor fit].

In the case of `CN1CCN(c2ccccc2NC(=O)c2ccc(-c3ccccc3)cc2)CC1`, the AC50 [1] is reported as 23.1 µM [falling, single point].

For `O=C(Nc1cc(Br)ccc1O)c1cc(-c2ccccc2)on1`, the AC50 [1] was 35.5 µM [falling, single point].

With `Cc1onc(-c2ccccc2Cl)c1C(=O)NC(=S)Nc1ccc(C(C)C)cc1` the AC50 [1] was 0.355 µM [rising, full curve, poor fit].

For `CCN(CC)S(=O)(=O)c1ccc(OC)c(NC(=O)c2ccc(-n3cncn3)c([N+](=O)[O-])c2)c1`, the AC50 [1] was 0.164 µM [rising, full curve, poor fit].
